The target of series [1] is human NaV1.7 (Homo sapiens, UniProt Q15858). Kind of series: Patch voltage clamp electrophysiology assay (EP), NaV1.7. The class given is cell-based. The note with it: read-out: Nav1.7; HEK-293 cells stably expressing NaV1.7 with β1 subunit; whole-cell patch clamp, membrane potential −60 mV (inactivated state). On the technique in general: Patch clamp records ionic current or voltage across a cell membrane.

Chains of the proteins cited; added tags and fusions are not shown. Residues count along the entry.
UniProt Q15858, 1-1977 isoform 3: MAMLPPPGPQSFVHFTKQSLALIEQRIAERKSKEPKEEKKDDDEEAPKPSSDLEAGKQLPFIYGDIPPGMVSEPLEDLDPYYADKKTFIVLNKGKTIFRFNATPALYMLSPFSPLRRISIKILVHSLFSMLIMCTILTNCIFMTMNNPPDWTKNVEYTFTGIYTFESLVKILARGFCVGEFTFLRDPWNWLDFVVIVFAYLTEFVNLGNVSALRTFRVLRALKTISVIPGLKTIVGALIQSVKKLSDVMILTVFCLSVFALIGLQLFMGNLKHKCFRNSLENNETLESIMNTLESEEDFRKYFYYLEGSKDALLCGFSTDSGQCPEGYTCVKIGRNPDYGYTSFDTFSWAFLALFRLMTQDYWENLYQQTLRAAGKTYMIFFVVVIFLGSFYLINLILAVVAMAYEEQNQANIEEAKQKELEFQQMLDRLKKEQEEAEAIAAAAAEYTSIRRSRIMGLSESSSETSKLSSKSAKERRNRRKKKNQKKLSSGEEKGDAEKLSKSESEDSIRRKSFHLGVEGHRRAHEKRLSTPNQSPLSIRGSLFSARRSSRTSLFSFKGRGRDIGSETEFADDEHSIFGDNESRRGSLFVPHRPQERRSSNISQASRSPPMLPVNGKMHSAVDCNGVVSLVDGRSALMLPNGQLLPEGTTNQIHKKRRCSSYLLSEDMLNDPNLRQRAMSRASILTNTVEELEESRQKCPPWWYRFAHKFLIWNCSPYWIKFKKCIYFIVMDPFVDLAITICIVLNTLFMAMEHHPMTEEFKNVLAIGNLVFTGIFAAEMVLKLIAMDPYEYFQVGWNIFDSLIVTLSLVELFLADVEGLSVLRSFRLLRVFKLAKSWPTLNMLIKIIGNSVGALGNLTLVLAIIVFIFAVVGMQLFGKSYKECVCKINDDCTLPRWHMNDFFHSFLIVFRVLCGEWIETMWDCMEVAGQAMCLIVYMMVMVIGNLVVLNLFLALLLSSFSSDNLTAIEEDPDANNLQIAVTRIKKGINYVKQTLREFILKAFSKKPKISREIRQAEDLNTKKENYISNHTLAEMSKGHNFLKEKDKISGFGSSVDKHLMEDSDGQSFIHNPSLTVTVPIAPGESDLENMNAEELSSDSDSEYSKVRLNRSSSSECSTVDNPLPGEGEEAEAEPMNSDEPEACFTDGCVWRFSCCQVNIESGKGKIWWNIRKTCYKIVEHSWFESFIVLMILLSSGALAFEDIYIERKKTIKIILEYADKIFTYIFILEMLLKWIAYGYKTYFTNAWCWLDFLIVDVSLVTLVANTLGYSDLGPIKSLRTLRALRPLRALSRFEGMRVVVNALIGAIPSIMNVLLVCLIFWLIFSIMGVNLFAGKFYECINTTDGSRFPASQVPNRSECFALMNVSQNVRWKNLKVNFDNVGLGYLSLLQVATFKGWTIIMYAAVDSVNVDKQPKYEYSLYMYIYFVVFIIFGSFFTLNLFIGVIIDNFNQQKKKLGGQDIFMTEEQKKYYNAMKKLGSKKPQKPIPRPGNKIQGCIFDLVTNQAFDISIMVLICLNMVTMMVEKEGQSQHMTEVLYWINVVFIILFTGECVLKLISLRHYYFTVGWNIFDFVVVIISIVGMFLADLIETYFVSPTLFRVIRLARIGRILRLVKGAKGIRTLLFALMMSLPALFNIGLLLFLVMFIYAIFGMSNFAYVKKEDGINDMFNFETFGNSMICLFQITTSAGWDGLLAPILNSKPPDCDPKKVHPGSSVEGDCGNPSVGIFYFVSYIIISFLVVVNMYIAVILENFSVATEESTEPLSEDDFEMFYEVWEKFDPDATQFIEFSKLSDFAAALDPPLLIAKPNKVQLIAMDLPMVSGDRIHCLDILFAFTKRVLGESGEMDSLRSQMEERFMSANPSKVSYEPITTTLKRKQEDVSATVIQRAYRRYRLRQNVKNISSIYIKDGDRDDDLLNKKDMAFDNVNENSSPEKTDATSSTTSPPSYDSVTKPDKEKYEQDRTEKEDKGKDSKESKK
UniProt Q14524, whole entry: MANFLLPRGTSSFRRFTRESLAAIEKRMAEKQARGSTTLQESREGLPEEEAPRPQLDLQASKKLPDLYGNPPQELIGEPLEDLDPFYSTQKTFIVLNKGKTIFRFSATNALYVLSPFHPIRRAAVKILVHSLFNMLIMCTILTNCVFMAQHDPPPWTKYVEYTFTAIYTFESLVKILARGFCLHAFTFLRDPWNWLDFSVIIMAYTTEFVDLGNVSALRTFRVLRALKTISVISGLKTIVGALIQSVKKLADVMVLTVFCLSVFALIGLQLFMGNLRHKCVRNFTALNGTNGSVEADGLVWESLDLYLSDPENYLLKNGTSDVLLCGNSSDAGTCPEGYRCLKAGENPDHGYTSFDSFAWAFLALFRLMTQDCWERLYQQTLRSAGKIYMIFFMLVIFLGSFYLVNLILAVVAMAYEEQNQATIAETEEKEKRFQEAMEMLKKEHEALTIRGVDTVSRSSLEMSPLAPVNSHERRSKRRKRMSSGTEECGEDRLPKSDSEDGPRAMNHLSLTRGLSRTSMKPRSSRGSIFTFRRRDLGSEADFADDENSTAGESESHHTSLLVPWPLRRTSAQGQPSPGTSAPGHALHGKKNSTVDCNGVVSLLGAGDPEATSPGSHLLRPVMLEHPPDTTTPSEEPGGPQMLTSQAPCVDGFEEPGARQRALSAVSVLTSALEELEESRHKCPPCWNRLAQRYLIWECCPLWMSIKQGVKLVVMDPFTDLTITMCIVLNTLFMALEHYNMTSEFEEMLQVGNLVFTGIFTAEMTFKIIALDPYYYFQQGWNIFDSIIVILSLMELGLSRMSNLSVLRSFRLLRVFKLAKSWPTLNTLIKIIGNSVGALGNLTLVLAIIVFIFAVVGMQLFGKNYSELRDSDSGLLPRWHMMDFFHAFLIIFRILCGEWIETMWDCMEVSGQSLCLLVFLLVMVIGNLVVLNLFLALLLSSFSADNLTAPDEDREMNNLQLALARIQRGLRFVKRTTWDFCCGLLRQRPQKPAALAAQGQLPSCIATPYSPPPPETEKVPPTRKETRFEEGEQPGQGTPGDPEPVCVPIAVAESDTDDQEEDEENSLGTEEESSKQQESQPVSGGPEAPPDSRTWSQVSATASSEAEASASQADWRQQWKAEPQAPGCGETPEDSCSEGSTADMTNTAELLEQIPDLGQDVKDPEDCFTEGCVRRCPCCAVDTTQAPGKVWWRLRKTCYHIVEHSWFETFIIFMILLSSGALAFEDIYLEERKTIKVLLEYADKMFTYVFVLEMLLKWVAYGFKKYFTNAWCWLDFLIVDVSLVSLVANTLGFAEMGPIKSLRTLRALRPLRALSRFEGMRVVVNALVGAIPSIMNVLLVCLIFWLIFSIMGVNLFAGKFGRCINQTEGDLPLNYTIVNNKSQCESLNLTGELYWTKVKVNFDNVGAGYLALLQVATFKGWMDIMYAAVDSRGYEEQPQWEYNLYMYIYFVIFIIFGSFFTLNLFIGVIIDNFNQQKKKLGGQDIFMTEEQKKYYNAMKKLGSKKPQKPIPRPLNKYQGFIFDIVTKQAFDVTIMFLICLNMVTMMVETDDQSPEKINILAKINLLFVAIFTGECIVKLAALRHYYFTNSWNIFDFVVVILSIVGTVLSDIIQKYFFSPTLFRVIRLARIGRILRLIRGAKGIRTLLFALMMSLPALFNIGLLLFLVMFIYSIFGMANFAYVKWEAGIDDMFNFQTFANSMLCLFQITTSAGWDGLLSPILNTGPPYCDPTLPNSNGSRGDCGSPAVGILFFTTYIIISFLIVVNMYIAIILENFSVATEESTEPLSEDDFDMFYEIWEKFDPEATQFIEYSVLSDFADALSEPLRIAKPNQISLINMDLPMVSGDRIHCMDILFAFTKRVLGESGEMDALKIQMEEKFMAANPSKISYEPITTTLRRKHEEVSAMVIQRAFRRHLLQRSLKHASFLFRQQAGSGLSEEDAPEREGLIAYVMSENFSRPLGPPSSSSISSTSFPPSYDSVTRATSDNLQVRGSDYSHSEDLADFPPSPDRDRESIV
UniProt Q07699, 19-218 partner limits assumed: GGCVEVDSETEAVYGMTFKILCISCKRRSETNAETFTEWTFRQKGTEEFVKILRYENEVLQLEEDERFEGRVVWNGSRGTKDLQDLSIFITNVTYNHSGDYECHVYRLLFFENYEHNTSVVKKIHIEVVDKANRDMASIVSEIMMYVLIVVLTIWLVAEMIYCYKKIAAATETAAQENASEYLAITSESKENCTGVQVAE

Series [2] deals with human NaV1.5 (Homo sapiens, UniProt Q14524). The series can be described thus: Patch voltage clamp electrophysiology assay (EP), NaV1.5. The note with it: read-out: Nav1.5; HEK-293 cells stably expressing NaV1.5 with β1 subunit; whole-cell patch clamp, membrane potential −60 mV (inactivated state).
Series [3] addresses hNav1.7 (Homo sapiens, UniProt Q15858). Kind of series: Tritiated compound binding (LBA) to membranes from cells expressing hNav1.7 and the β1 subunit, competitive binding. The note with it: read-out: LBA; competitive binding vs 100 pM [3H]compound, 18 h, room temperature, membranes with hNav1.7 and β1 subunit.

Among the data in US10125098B2, “Therapeutic compounds and methods of use thereof” (GENENTECH, INC., priority 2014, dated 2018) are IC50 values, retold here.

SMILES strings stand for the structures. The match of structure and compound is tentative.

Regarding `O=C(O)[C@@H]1C2CC(C2)N1C(=O)c1cc(C2CC2)c(OCC23CC4CC(CC(C4)C2)C3)cc1F`, the IC50 was found to be 1600 nM in series [1], 11000 nM in series [2] and 190 nM in series [3].
With `O=C(O)[C@@H]1C[C@@H](F)CN1C(=O)c1cc(C2CC2)c(OCC2CCN(C(c3cc(Cl)cc(Cl)c3)C(F)(F)F)CC2)cc1F` (some centres unmarked), the IC50 in series [1] turned out to be 310 nM; in series [2] it was 11000 nM; in series [3] it was 16 nM.
With `C[C@H]1OCN(C(=O)c2cc(C3CC3)c(COc3cc(Cl)cc(Cl)c3)cc2F)[C@@H]1C(=O)O`, the IC50 in series [1] worked out at 20 nM; in series [3], 9.2 nM.
